{"source": "PubChem BioAssay AID662", "about": "(National Center for Advancing Translational Sciences (NCATS), 2007)", "note": "This is one part of the list. Shown are side measurements of this screen, not its main read-out; they come without a call. Most of these compounds were active or inconclusive in the main read-out, so they are no random draw. The note in brackets gives the kind of curve behind each potency; many fits are weak.", "data": [{"test": "Cell signaling CRE-BLA (Fsk stim)", "conditions": "CHO CRE-bla reporter (cAMP response element driving beta-lactamase), forskolin EC10, beta-lactamase ratio; measured here: 460 nm blue channel", "in_short": "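Titrated compounds plus EC10 NKH 477 on CHO CRE-bla cells, 3 h, 37 °C. CCF4, 2 h RT. Ratio 460/530 nm → AC50.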", "values": [{"smiles": "C=CCNc1nc2c(c(=O)n(C)c(=O)n2C)n1CC", "AC50": "10 µM [rising, partial curve]"}, {"smiles": "N#Cc1cccc(-c2nc3cnc(N4CCNCC4)nc3n(C3CC3)c2=O)c1", "AC50": "10 µM [rising, partial curve]"}, {"smiles": "COc1cc(NC(=O)C2CCN(S(=O)(=O)c3cccnc3)CC2)cc(OC)c1OC", "AC50": "3.16 µM [falling, partial curve, poor fit]"}, {"smiles": "CCOc1ccccc1-c1nc(-c2ccc(NC(=O)Cc3ccc(OC)cc3)cc2)no1", "AC50": "3.16 µM [falling, partial curve]"}, {"smiles": "CCOC(=O)c1ccccc1NC(=O)c1cc(S(=O)(=O)N2CCOCC2)ccc1F", "AC50": "10 µM [rising, partial curve]"}, {"smiles": "COc1ccc(C(=O)NCc2nnc(SCC(=O)Nc3cccc(C(F)(F)F)c3)o2)cc1OC", "AC50": "20 µM [rising, partial curve, poor fit]"}, {"smiles": "Cc1nc2c3c(-c4ccccc4)nc(N4CCOCC4)nc3nn2c(C)c1CCC(=O)O", "AC50": "0.00316 µM [falling, full curve, poor fit]"}, {"smiles": "CN(Cc1ccco1)c1ncncc1-c1ccccc1Cl", "AC50": "20 µM [falling, partial curve, poor fit]"}, {"smiles": "COc1ccc(-n2nc3cc(C)c(NC(=O)CC(C)C)cc3n2)cc1", "AC50": "0.398 µM [rising, single point]"}, {"smiles": "O=C(CSc1nc(Nc2ccccc2)nc(N2CCOCC2)n1)Nc1ccccc1Cl", "AC50": "12.6 µM [rising, single point]"}, {"smiles": "CC(C)[C@@H](CC(=O)N[C@@H]1CCNC[C@H]1C(=O)N[C@H](CC(=O)N[C@@H](CCC(=O)O)CC(=O)O)Cc1c[nH]c2ccccc12)NC(=O)C[C@H](CO)NC(=O)[C@@H]1CNCC[C@H]1N", "AC50": "15.8 µM [falling, partial curve, poor fit]"}, {"smiles": "CC1=C(C)C(=O)N(c2ccccn2)C1=O", "AC50": "31.6 µM [falling, partial curve]"}, {"smiles": "COc1ccc(C2=NOC(C(=O)Nc3ccc(C)cc3)C2)cc1OC", "note": "(configuration not stated)", "AC50": "0.398 µM [falling, full curve, poor fit]"}, {"smiles": "Cn1c(C(=O)N2COCC2(C)C)cc2c(=O)n3ccccc3nc21", "AC50": "12.6 µM [rising, partial curve]"}, {"smiles": "O=C(c1ccc2c(c1)C(=O)N(Cc1ccco1)C2=O)N1CCOCC1", "AC50": "0.00316 µM [rising, full curve, poor fit]"}, {"smiles": "CC(=O)c1ccc(N2CCCCCC2)c(F)c1", "AC50": "0.00316 µM [falling, full curve, poor fit]"}, {"smiles": "CS(=O)(=O)N(CC(N)=O)c1ccc(F)c(Cl)c1", "AC50": "12.6 µM [falling, partial curve]"}, {"smiles": "COc1ccc(NS(=O)(=O)c2cc(C)ccc2NC(=O)c2cc(C)oc2C)cc1", "AC50": "7.94 µM [rising, single point]"}, {"smiles": "COC(=O)c1ccccc1NC(=O)COC(=O)CSCC(=O)N1CCOCC1", "AC50": "0.2 µM [falling, full curve]"}, {"smiles": "Cc1ccc(Nc2nc(C(=O)N3CCC(C(=O)N4CCN(C)CC4)CC3)cs2)cc1", "AC50": "5.01 µM [falling, single point]"}, {"smiles": "CC(C)CCNC(=O)CN(Cc1ccc2c(c1)OCO2)C(=O)Cn1nnc(-c2cccs2)n1", "AC50": "25.1 µM [falling, single point]"}, {"smiles": "CC(=O)Cc1nsc(NC(=O)c2csc3c2CCCC3)n1", "AC50": "10 µM [rising, partial curve]"}, {"smiles": "O=C(Nc1ccccc1F)N(CCCN1CCOCC1)Cc1cc2cc3c(cc2[nH]c1=O)OCCO3", "AC50": "10 µM [rising, partial curve]"}, {"smiles": "COc1ccc(CNc2ncnc3ccc(-c4cccc(NS(C)(=O)=O)c4)cc23)c(OC)c1", "AC50": "7.94 µM [rising, partial curve]"}, {"smiles": "COC(=O)CSc1nc2c(c(=O)[nH]c(=O)n2C)n1CCC(C)C", "AC50": "10 µM [rising, single point]"}, {"smiles": "COc1nc(NC(C)(C)C)nc(Oc2ccc(=O)n(-c3ccccc3)n2)n1", "AC50": "12.6 µM [rising, single point]"}, {"smiles": "CCOC(=O)c1c(C2COc3ccccc3O2)csc1NC(=O)c1ccco1", "note": "(configuration not stated)", "AC50": "2 µM [rising, full curve]"}, {"smiles": "Cc1cc(C)c2c(N)c(C(=O)Nc3nccs3)sc2n1", "AC50": "15.8 µM [rising, single point]"}, {"smiles": "COCC(C)NC(=O)CCS(=O)(=O)c1nc(-c2ccc(OC)cc2)cc(C(F)(F)F)n1", "note": "(configuration not stated)", "AC50": "2.51 µM [falling, full curve]"}, {"smiles": "COc1ccc(C(O)P(=O)(O)CCc2ccccc2)cc1", "note": "(configuration not stated)", "AC50": "0.00398 µM [falling, full curve, poor fit]"}, {"smiles": "CC(C)(C)c1ccccc1NC(=O)c1ccco1", "AC50": "0.794 µM [falling, full curve]"}, {"smiles": "CCC(C(=O)N1CCN(c2cccc(Cl)c2)CC1)c1ccccc1", "note": "(configuration not stated)", "AC50": "10 µM [falling, partial curve]"}, {"smiles": "COc1[nH]c2ccc(F)cc2c1C(=O)OCC1CCN(CCNS(C)(=O)=O)CC1", "AC50": "31.6 µM [falling, single point]"}, {"smiles": "CC(C)(C)c1csc(N(CCC#N)CCC#N)n1", "AC50": "0.0631 µM [falling, full curve, poor fit]"}, {"smiles": "COc1cc(OC)c(C2C3=C(CCCC3=O)Nc3nc4ccccc4n32)cc1OC", "note": "(configuration not stated)", "AC50": "0.0398 µM [rising, full curve, poor fit]"}, {"smiles": "Cc1ccc(NC(=O)c2ccccc2O)cc1", "AC50": "5.01 µM [falling, single point]"}, {"smiles": "Cc1ccc2nc3c(cc(C(=O)NCc4cccnc4)c(=N)n3C(C)C)c(=O)n2c1", "AC50": "10 µM [rising, partial curve]"}, {"smiles": "Clc1cccc(Cl)c1Cn1cnc2c(N3CCCCCC3)ncnc21", "AC50": "2 µM [rising, full curve]"}, {"smiles": "Cn1c(=O)c2nc(-c3ccccc3)oc2c2ccccc21", "AC50": "3.98 µM [rising, single point]"}, {"smiles": "Cc1n[nH]c(C)c1CCc1nc2c3ccccc3nc(SCC(N)=O)n2n1", "AC50": "2 µM [rising, partial curve]"}, {"smiles": "CC(Sc1ccccn1)C(=O)Nc1ccccc1", "note": "(configuration not stated)", "AC50": "10 µM [falling, partial curve]"}, {"smiles": "COCC(=O)Nc1cccc(Br)c1", "AC50": "0.00398 µM [falling, full curve, poor fit]"}]}]}
